These are yes or no findings as the source states them, for the method shown. Binding seen in cells or lysates may run through a third protein. Some entries that bind do so weakly or less than the wild type. Values belong to the molecule of their own block, whether it stands above or below them.
What was measured:
Flag-CCM2 = Flag-CCM2 (UniProt Q9BSQ5); test: co-IP; HEK293T (for Figure 4E also HEK293T shCCM2) transfected with Flag- and HA-tagged plasmids, treated with DMSO or CK-666 (100 uM); lysis in 25 mM Tris-HCl pH 7.4, 150 mM NaCl, 1% NP-40, 1 mM EDTA, 5% glycerol; anti-DDDDK-tag antibody overnight at 4 °C, protein A + G agarose; detection with anti-HA
Flag-Smurf1 = Flag-Smurf1 (UniProt Q9HCE7); test: as above
Flag-RhoA = Flag-RhoA (UniProt P61586); test: as above
HA-RhoA Q63L = HA-RhoA Q63L (UniProt P61586); test: proximity ligation; in situ PLA (Duolink) in fixed, permeabilised cells treated with DMSO or CK-666; primary antibodies against the two proteins
cortactin = cortactin (UniProt Q14247); test: as above
GST-RhoA Q63L = GST-RhoA Q63L (UniProt P61586); test: pull-down; active RhoGAP pulldown: GST-RhoA Q63L on glutathione Sepharose (50 ug/mL) incubated with total cell lysate for 1 h at 4 °C; lysis buffer 150 mM NaCl, 20 mM HEPES pH 7.6, 10 mM MgCl2, 1% Triton X-100; cells treated with DMSO or CK-666; p190RhoGAP detected by western blot; only the target purified
[1] = target: cortactin (Co-IP of Figure 2F) (UniProt Q14247); test: co-IP; Co-IP 'as indicated' in Figure 2F, cells treated with DMSO or CK-666; which protein was precipitated is not told

Sequences of proteins named here, by UniProt entry; tags and fusion partners are left off. A change or cut given only in a name is not applied to a line headed by its entry. A line that says so, or that is headed by a name, gives the form on record, which may keep a tag or linker.
UniProt Q9BSQ5: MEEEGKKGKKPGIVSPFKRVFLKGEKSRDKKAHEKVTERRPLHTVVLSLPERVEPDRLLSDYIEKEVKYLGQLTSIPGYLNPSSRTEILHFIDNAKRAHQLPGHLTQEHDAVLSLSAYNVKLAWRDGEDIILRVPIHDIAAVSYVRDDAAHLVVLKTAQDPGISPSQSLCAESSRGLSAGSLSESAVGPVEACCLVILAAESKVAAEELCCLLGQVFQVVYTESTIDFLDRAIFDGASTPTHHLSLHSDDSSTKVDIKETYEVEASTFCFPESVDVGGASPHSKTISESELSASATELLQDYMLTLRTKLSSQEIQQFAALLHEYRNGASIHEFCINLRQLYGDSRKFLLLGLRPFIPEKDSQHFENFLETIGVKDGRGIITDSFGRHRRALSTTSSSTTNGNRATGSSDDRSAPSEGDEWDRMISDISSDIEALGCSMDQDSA
HA-Smurf1 (Q9HCE7-2, form named): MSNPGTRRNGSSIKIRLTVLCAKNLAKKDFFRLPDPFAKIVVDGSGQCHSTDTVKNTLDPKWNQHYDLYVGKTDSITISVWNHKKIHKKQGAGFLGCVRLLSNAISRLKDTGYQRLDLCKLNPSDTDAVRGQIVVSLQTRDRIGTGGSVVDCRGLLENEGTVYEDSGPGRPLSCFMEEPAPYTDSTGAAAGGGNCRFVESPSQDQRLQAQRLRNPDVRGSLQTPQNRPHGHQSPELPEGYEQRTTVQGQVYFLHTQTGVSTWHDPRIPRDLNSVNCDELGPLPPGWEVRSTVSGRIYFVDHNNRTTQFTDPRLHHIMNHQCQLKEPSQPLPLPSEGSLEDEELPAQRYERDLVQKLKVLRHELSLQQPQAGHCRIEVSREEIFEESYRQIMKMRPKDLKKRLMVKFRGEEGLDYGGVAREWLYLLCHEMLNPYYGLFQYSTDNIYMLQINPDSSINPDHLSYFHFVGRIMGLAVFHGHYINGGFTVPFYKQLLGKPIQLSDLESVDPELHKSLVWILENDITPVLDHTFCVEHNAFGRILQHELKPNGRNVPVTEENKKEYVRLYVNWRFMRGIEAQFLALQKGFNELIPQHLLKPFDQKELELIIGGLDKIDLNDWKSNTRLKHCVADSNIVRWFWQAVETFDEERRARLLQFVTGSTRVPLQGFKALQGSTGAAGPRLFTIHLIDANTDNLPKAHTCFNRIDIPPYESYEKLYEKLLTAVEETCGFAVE
UniProt P61586: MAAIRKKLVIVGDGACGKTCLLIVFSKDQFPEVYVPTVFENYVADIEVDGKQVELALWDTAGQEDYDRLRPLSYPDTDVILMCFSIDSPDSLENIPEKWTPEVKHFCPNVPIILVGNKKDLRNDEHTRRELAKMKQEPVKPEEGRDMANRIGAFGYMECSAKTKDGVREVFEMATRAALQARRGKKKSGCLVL
UniProt Q14247: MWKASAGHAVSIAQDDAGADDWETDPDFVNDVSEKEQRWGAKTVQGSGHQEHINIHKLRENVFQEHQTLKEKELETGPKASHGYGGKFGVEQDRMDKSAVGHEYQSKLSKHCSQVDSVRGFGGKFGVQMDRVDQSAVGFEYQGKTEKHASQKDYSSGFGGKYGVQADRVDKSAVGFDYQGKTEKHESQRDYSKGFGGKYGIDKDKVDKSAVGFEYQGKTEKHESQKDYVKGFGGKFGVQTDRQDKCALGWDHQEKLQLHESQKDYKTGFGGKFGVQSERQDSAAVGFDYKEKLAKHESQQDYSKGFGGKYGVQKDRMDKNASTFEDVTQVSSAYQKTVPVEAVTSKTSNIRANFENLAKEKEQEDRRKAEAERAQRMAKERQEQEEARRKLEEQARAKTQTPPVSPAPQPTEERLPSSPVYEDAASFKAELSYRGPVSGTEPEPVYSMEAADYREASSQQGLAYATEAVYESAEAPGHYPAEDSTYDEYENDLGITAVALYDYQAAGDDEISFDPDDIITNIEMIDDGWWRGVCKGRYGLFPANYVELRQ

binding (Flag-CCM2): binds | binding (Flag-Smurf1): binds
Molecule: HA-RhoA (from UniProt P61586 1-193)

binding (Flag-CCM2): binds | binding (Flag-RhoA): binds
Molecule: HA-Smurf1 (from UniProt Q9HCE7-2 1-731)

binding (HA-RhoA Q63L): binds | binding (cortactin): binds | binding (GST-RhoA Q63L): binds
B1: p190RhoGAP (protein, UniProt Q9NRY4 1-1499)
chain: MMMARKQDVRIPTYNISVVGLSGTEKEKGQCGIGKSCLCNRFVRPSADEFHLDHTSVLSTSDFGGRVVNNDHFLYWGEVSRSLEDCVECKMHIVEQTEFIDDQTFQPHRSTALQPYIKRAAATKLASAEKLMYFCTDQLGLEQDFEQKQMPDGKLLVDGFLLGIDVSRGMNRNFDDQLKFVSNLYNQLAKTKKPIVVVLTKCDEGVERYIRDAHTFALSKKNLQVVETSARSNVNVDLAFSTLVQLIDKSRGKTKIIPYFEALKQQSQQIATAKDKYEWLVSRIVKNHNENWLSVSRKMQASPEYQDYVYLEGTQKAKKLFLQHIHRLKHEHIERRRKLYLAALPLAFEALIPNLDEIDHLSCIKAKKLLETKPEFLKWFVVLEETPWDATSHIDNMENERIPFDLMDTVPAEQLYEAHLEKLRNERKRVEMRRAFKENLETSPFITPGKPWEEARSFIMNEDFYQWLEESVYMDIYGKHQKQIIDKAKEEFQELLLEYSELFYELELDAKPSKEKMGVIQDVLGEEQRFKALQKLQAERDALILKHIHFVYHPTKETCPSCPACVDAKIEHLISSRFIRPSDRNQKNSLSDPNIDRINLVILGKDGLARELANEIRALCTNDDKYVIDGKMYELSLRPIEGNVRLPVNSFQTPTFQPHGCLCLYNSKESLSYVVESIEKSRESTLGRRDNHLVHLPLTLILVNKRGDTSGETLHSLIQQGQQIASKLQCVFLDPASAGIGYGRNINEKQISQVLKGLLDSKRNLNLVSSTASIKDLADVDLRIVMCLMCGDPFSADDILFPVLQSQTCKSSHCGSNNSVLLELPIGLHKKRIELSVLSYHSSFSIRKSRLVHGYIVFYSAKRKASLAMLRAFLCEVQDIIPIQLVALTDGAVDVLDNDLSREQLTEGEEIAQEIDGRFTSIPCSQPQHKLEIFHPFFKDVVEKKNIIEATHMYDNAAEACSTTEEVFNSPRAGSPLCNSNLQDSEEDIEPSYSLFREDTSLPSLSKDHSKLSMELEGNDGLSFIMSNFESKLNNKVPPPVKPKPPVHFEITKGDLSYLDQGHRDGQRKSVSSSPWLPQDGFDPSDYAEPMDAVVKPRNEEENIYSVPHDSTQGKIITIRNINKAQSNGSGNGSDSEMDTSSLERGRKVSIVSKPVLYRTRCTRLGRFASYRTSFSVGSDDELGPIRKKEEDQASQGYKGDNAVIPYETDEDPRRRNILRSLRRNTKKPKPKPRPSITKATWESNYFGVPLTTVVTPEKPIPIFIERCIEYIEATGLSTEGIYRVSGNKSEMESLQRQFDQDHNLDLAEKDFTVNTVAGAMKSFFSELPDPLVPYNMQIDLVEAHKINDREQKLHALKEVLKKFPKENHEVFKYVISHLNKVSHNNKVNLMTSENLSICFWPTLMRPDFSTMDALTATRTYQTIIELFIQQCPFFFYNRPITEPPGARPSSPSAVASTVPFLTSTPVTSQPSPPQSPPPTPQSPMQPLLPSQLQAEHTL

binding [1]: binds
B2: p190RhoGAP (Co-IP of Figure 2F) (protein, UniProt Q9NRY4 1-1499)
chain: B1 chain
